# Measurements taken from the supplement of paper PMC12889115.
# Some of the results follow. Values are raw readings; no control value is given beside them.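 First-pass screen: polymyxin B was added at a level that permeabilizes the Salmonella outer membrane while sparing the inner membrane. DMSO wells, with and without polymyxin B, defined maximum growth. Because plates differed from one another, each plate's data were ranked separately and the compounds with the lowest OD600 were carried forward as hits.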
# System: Salmonella enterica serovar Typhimurium SL1344
# Assay: bacterial growth OD600 after 18 h with compound and polymyxin B; higher = more bacterial growth (less inhibition)
# Conditions: 50 µM, Mueller-Hinton broth
SMILES,bacterial growth OD600 (polymyxin B 0.75 µg/mL),bacterial growth OD600 (polymyxin B 1 µg/mL)
CSCC(=O)NC1CCCc2c1cnn2-c1ccc(C)c(C)c1 (centres undefined),0.507,
COc1ccc(CNC(=O)CCC2CCCN(C(=O)c3cc(C)[nH]n3)C2)c(OC)c1 (centres undefined),0.777,
Cc1oc(-c2ccc(NC(=O)Cc3ccccc3)cc2)nc1CNC(=O)Cn1c(=O)oc2ccccc21,0.848,
COc1ccc(-c2nn(-c3ccccc3C)cc2CNCCNC(C)=O)cc1F,,0.822
CC(C)Cn1cc(C(=O)N2CCCCCC2)c(=O)c(C(=O)N2CCCC(c3ccccc3)C2)c1 (centres undefined),0.821,
CN(CC1(O)CCCN(CC(C)(C)C)C1=O)C1CCCCC1 (centres undefined),,0.951
Cc1cccc(-n2ncc3c2CCCC3NC(=O)C2(C(N)=O)CC2)c1C (centres undefined),,1.11
Clc1ccc2c(c1)C=C(CNC1CCCN(c3ncccn3)C1)CO2 (centres undefined),,0.751
COCc1cc(CN2CCN(Cc3ccc(OC)c(C)c3C)C(CCO)C2)ccc1OC (centres undefined),,0.821

# Single entries from above:
# COCc1cc(CN2CCN(Cc3ccc(OC)c(C)c3C)C(CCO)C2)ccc1OC (centres undefined) – bacterial growth OD600 (polymyxin B 1 µg/mL): 0.821
# CN(CC1(O)CCCN(CC(C)(C)C)C1=O)C1CCCCC1 (centres undefined) – bacterial growth OD600 (polymyxin B 1 µg/mL): 0.951
